These are yes or no findings as the source states them, for the method shown. Some results given as binding are weak or reduced against the parent protein; the word gives no strength.
Columns and labels:
[1] = target: latency associated peptide (LAP) of TGFβ1 (UniProt P01137); assay: SPR
[2] = target: small latent TGF complex (SLC) of TGFβ1 (UniProt P01137); assay: SPR

Amino acid sequences for entries named in this document (tags omitted). A change or cut given only in a name is not applied to a line headed by its entry. Residues count along the entry.
UniProt P01137, residues 30-278: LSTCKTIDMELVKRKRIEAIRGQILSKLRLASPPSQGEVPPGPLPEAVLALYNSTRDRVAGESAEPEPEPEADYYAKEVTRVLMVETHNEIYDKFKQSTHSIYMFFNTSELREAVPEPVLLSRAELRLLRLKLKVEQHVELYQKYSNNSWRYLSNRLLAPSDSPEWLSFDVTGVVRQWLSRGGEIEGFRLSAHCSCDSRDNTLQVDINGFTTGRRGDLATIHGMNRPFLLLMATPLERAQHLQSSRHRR
UniProt P11464: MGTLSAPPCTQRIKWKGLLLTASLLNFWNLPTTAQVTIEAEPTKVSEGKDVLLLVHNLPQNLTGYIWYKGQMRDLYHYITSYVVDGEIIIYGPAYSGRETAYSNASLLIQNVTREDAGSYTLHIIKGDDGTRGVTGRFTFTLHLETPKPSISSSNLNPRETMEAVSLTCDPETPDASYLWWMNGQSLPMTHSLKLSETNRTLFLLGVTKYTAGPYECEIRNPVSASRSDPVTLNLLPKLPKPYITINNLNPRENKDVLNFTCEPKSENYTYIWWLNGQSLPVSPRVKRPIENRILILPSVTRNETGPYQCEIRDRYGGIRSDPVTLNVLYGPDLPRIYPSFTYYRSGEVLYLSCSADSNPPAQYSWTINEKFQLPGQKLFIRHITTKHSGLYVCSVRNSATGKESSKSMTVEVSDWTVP

binding [1]: binds | binding [2]: binds
Substance: PSG1-Fc (from UniProt P11464 35-419) (Fc fusion)
